Reference: PubChem BioAssay AID624291 (National Center for Advancing Translational Sciences (NCATS), 2012)
The whole screen tested about 350,000 compounds, of which about 220 (0.063%) were called active. Inconclusive means that the source gave no clear call. Such entries were picked first, then a sample of the others. Calls follow the shape of the dose curve; as a rule, active = well fitted activation curve with a large enough effect; inconclusive = small, poorly fitted or top-dose-only effect; inactive = no such curve, though single readings can be large or run the other way. A potency beside an inconclusive call is a rough fit, not a confirmed value.

assay: qHTS for Activators of Integrin-Mediated Alleviation for Muscular Dystrophy; conditions: alpha7betagal myoblasts, beta-gal FDG fluorescence, 48 h; activation: at 38.3 µM (top of the series); also: nearly all actives have a fitted effect of over 60% in size;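 as to activation: 100% = response of the positive control SU9516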
Summary of the method: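 Alpha7betagal+/- myoblasts (passage 13) were plated 16-24 hr, then exposed to compounds (1:260 dilution of DMSO stock) for 48 hours at 37C. After MPER lysis, β-galactosidase reporter activity was read as FDG fluorescence (ex 480/em 540) after 30 minutes.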
Potency is read from the fitted curve at half-maximal effect.

| Structure (SMILES) | Potency | activation |
| --- | --- | --- |
| O=C(O)CCc1ccc(-c2cccs2)o1 | inactive | – |
| O=C(NCCN1C(=O)S/C(=C\c2ccc(Cl)cc2)C1=O)c1ccc(F)c(S(=O)(=O)N2CCOCC2)c1 | inactive | – |
| Cc1cc2ncn(-c3ncnc4sc(C)c(C)c34)c2cc1C | inactive | – |
| O=C(NCNC(=O)c1ccccc1)c1ccccc1 | inconclusive: 7.94 µM [activator, partial curve, poor fit] | – |
| OC(Cc1ccnc2ccccc12)C(Cl)(Cl)Cl (stereo unspecified) | inactive | – |
| Cc1ccc(Cn2ccc(NC(=O)c3cc(-c4ccccc4)on3)n2)cc1 | inactive | – |
| Cc1ccccc1NC(=O)CSc1nnc(C)c(=O)[nH]1 | inconclusive: 2.24 µM [activator, partial curve, poor fit] | – |
| CC(=O)N1CCN(c2ccc(NC(=O)/C=C/c3ccccc3)cc2)CC1 | inconclusive: 25.1 µM [activator, single point] | – |
| CC1(C)CCC(=O)N2CC[C@H]3C[C@H](OC(=O)Nc4ccccc4)C[C@@H]1[C@H]32 | inactive | – |
| O=C(CSc1nnc(COc2cccc3cccnc23)o1)N1CCCC1 | inconclusive: 3.55 µM [activator, full curve] | – |
| C#CCOc1ccc(C2C3=C(CC(C)(C)CC3=O)N(CC(=O)O)C3=C2C(=O)CC(C)(C)C3)cc1OC | inconclusive: 5.01 µM [activator, single point] | – |
| CCNc1c(NS(=O)(=O)c2ccc(F)c(Cl)c2)c(=O)oc2ccccc12 | inconclusive: 5.01 µM [activator, full curve, poor fit] | – |
| O=S1(=O)CCOC[C@H](c2ccccc2)N1Cc1cccc(Cl)c1 | inactive | – |
| CCCCN(CCCC)S(=O)(=O)c1ccc(NC(=O)c2cccs2)cc1 | inactive | – |
| O=C(COc1ccc2c(C(F)(F)F)cc(=O)oc2c1)Nc1ccc(N2CCOCC2)cc1 | inconclusive: 0.501 µM [activator, full curve, poor fit] | – |
| CCOc1ccc(Cl)cc1S(=O)(=O)N1CCC(C(=O)NCc2cccnc2)CC1 | inconclusive: 12.6 µM [activator, single point] | – |
| Cc1nc2c(C)[n+](CC(=O)c3ccccc3)ccc2n1C | inconclusive: 2.82 µM [activator, partial curve, poor fit] | – |
| Nc1nc2n(n1)C(c1cccs1)CC(c1ccccc1)N2 (stereo unspecified) | inactive | – |
| CC1(C)CC2CN(C(=O)Cc3ccccc3)C(C)(C2)C1 (stereo unspecified) | inconclusive: 5.01 µM [activator, single point] | – |
| CCOc1ccccc1N1CCN(Cc2cn[nH]c2-c2ccc(F)cc2)CC1 | inactive | – |
| Cc1nnc(-c2ccccc2)c(=O)n1/N=C/c1c(O)ccc2ccccc12 | inactive | – |
| C[C@@H]1CN([C@H](C)CO)C(=O)c2cccc(NC(=O)NC3CCCCC3)c2O[C@@H]1CN(C)C(=O)Nc1ccc(C(F)(F)F)cc1 | inactive | – |
| O=C(CSc1nc2c([nH]c3ccccc32)c(=O)n1-c1ccccc1F)NCC1CCCO1 (stereo unspecified) | inactive | – |
| O=C(CCCN1C(=O)/C(=C\c2cccs2)SC1=S)Nc1ccc(C(=O)O)cc1 | inactive | – |

| Structure (SMILES) | Potency | activation |
| --- | --- | --- |
| CCOc1ccc(CN2CCN(Cc3ccsc3)C(CCO)C2)cc1CO (stereo unspecified) | inconclusive: 2.51 µM [activator, partial curve, poor fit] | – |
| CCCCCCn1c2c(c(=N)c3c1CCC3)CCC2 | – | inconclusive: -56.8% [activator] |
| Cc1ccccc1S(=O)(=O)N1C[C@H]2CON(C)[C@H]2C[C@H]1c1cccc(N2CCOCC2)c1 | inactive | – |
| COc1cc(/C=C/c2cccc[n+]2C)ccc1OCC(=O)Nc1ccccc1C | inactive | – |
| CCS(=O)(=O)Nc1cccc(-c2cn3c(n2)SCC3)c1 | inconclusive: 5.01 µM [activator, single point] | – |
| Cc1cccc(N2CCN(S(=O)(=O)c3c(C)[nH]c(C)c3C(=O)N3CCCCC3)CC2)c1C | inconclusive: 12.6 µM [activator, partial curve, poor fit] | – |
| CCOc1c(Nc2ccccc2O)c(=O)c1=O | inconclusive: 5.01 µM [activator, single point] | – |
| O=C(CCNC(=O)N1CC(=O)Nc2ccccc21)Nc1ccc(F)c(Cl)c1 | inconclusive: 28.2 µM [activator, single point] | – |
| COc1ccc(/C=C2\COc3ccccc3C2=O)cc1OC | inactive | – |
| CCc1nnc(NC(=O)c2ccc(S(=O)(=O)N3CCCc4ccccc43)cc2)o1 | inactive | – |
| CCOC(=O)C1(Cc2ccccc2)CCN(Cc2ccon2)CC1 | inconclusive: 14.1 µM [activator, single point] | – |
| CCCN(CCC)C(=O)CSc1nc2c(sc(=S)n2-c2ccc(OCC)cc2)c(=O)[nH]1 | inconclusive: 14.1 µM [activator, single point] | – |
| O=C(NC1CCN(C(=S)NCCc2ccccc2)CC1)C1CC1 | inconclusive: 28.2 µM [activator, single point] | – |
| CC(C)(C)c1cc(NC(=O)CSc2nnc(N)s2)n(-c2ccccc2)n1 | inconclusive: 31.6 µM [activator, single point] | – |
| CCOC(=O)N/N=C\c1ccccc1OC/C=C/c1ccccc1 | – | inconclusive: -20.6% [activator] |
| CC(C)c1nc2oc3c(NCC4CCCO4)ncnc3c2c2c1COC(C)(C)C2 (stereo unspecified) | inactive | – |
| C[C@H]1CN([C@@H](C)CO)C(=O)CCCn2nncc2CO[C@H]1CN(C)S(=O)(=O)c1ccc(Oc2ccccc2)cc1 | inactive | – |
| Cc1ccc(C)c(N2CCN(C(=O)CCCn3c(=S)[nH]c4cc5c(cc4c3=O)OCO5)CC2)c1 | inconclusive: 1.12 µM [activator, partial curve, poor fit] | – |
| N#CC1=C(N)SC(N)=C(C#N)C1c1cccc(Oc2ccccc2)c1 | inactive | – |
| Cc1cccc(NC(=O)c2cc(-c3cc(C)c(C)cc3O)n[nH]2)c1 | inconclusive: 0.794 µM [activator, full curve, poor fit] | – |
| CC1CN(CC(O)COCc2ccc3c(c2)OCO3)CC(C)O1 (stereo unspecified) | inconclusive: 28.2 µM [activator, single point] | – |
| CCn1c(CC(=O)Nc2ccccc2C)nnc1SCC(=O)NC1=NCCS1 | inconclusive: 28.2 µM [activator, single point] | – |
| CCOC(=O)C1=C(C)Nc2ccccc2N=C1NC(=O)c1cccc(S(=O)(=O)NCc2ccccc2)c1 | inactive | – |
| CC(=O)N1c2ccc(Cl)cc2C2OCCC2C1c1ccco1 (stereo unspecified) | inactive | – |

Look-ups from the list.
Value of `CC(=O)N1c2ccc(Cl)cc2C2OCCC2C1c1ccco1` (stereo unspecified) under Potency: inactive
Value of `O=C(CCNC(=O)N1CC(=O)Nc2ccccc21)Nc1ccc(F)c(Cl)c1` under Potency: inconclusive: 28.2 µM [activator, single point]
Value of `Cc1ccccc1S(=O)(=O)N1C[C@H]2CON(C)[C@H]2C[C@H]1c1cccc(N2CCOCC2)c1` under Potency: inactive
Value of `C[C@H]1CN([C@@H](C)CO)C(=O)CCCn2nncc2CO[C@H]1CN(C)S(=O)(=O)c1ccc(Oc2ccccc2)cc1` under Potency: inactive

Next part.

| Structure (SMILES) | Potency | activation |
| --- | --- | --- |
| COc1ccc(-c2[nH]ncc2CN2CCN(c3ccc(F)cc3)CC2)cc1 | inconclusive: 28.2 µM [activator, single point] | – |
| COc1ccc(/C=C(/NC(=O)c2ccc(Br)cc2)C(=O)N2CCOCC2)cc1 | inconclusive: 2.51 µM [activator, single point] | – |
| NC(=O)CSc1nc2ccccc2nc1SCC(N)=O | inconclusive: 0.501 µM [activator, full curve, poor fit] | – |
| Cc1ccccc1OCC(O)Cn1c(=N)n(Cc2ccccc2)c2ccccc21 (stereo unspecified) | inactive | – |
| O=C(NCCc1csc(-c2ccccc2)n1)c1ccccc1F | inconclusive: 28.2 µM [activator, single point] | – |
| CCOC(=O)C(Cc1c[nH]c2ccccc12)NC(=O)c1ccco1 (stereo unspecified) | inconclusive: 28.2 µM [activator, single point] | – |
| COc1ccc(CCN(C(=O)c2snc(C(N)=O)c2N)C(C(=O)NCC2CCCO2)c2ccc(F)cc2)cc1OC (stereo unspecified) | inactive | – |
| CC(C)C(=O)Nc1ccc2c(c1)nc(CCN1CCCCC1)n2C | inconclusive: 5.01 µM [activator, single point] | – |
| O=C(O)CC(NNC(=O)c1ccccc1)C(=O)Nc1ccc([N+](=O)[O-])cc1 (stereo unspecified) | inconclusive: 3.55 µM [activator, single point] | – |
| O=C(c1ccc([N+](=O)[O-])cc1)n1nc(-c2ccccc2)nc1NCc1ccc(F)cc1 | inconclusive: 22.4 µM [activator, single point] | – |
| COc1cc(C(=O)OCC(=O)N2CCN(C(C)=O)CC2)ccc1OCC(C)C | inactive | – |
| Cc1ccccc1OCC(=O)N/N=C1\CC(=O)CC(C)(C)C1 | inconclusive: 28.2 µM [activator, partial curve, poor fit] | – |
| CC(C)(C)c1cc(-c2ccccc2)n[nH]1 | inconclusive: 20 µM [activator, single point] | – |
| CCCC1=[N+](CC(=O)c2ccccc2)CCn2c(C)ccc21 | inactive | – |
| COc1ccc(C(C(=O)NC(C)(C)C)N(Cc2cccnc2)C(=O)CCC(=O)Nc2cc(C)on2)cc1 (stereo unspecified) | inconclusive: 31.6 µM [activator, single point] | – |
| O=c1[nH]c(=S)[nH]c2scc(-c3ccc(Br)cc3)c12 | inconclusive: 12.6 µM [activator, partial curve, poor fit] | – |
| OC(COCc1cccs1)CN1CCN(c2ccccn2)CC1 (stereo unspecified) | inactive | – |
| O=C(C[C@@H]1C/C=C\CCC(=O)OC[C@@H]2CCCN2C1=O)N[C@@H](CO)Cc1ccccc1 | inactive | – |
| CCCn1cnnc1CNC(=O)C1CCC(=O)N(CCc2cccc(F)c2)C1 (stereo unspecified) | inconclusive: 3.55 µM [activator, single point] | – |
| O=C(NCCc1c[nH]c2ccccc12)c1ccc(Cl)cc1 | inconclusive: 28.2 µM [activator, single point] | – |
| CCN(CC)S(=O)(=O)c1cccc(NC(=O)COC(=O)c2cccs2)c1 | inconclusive: 5.01 µM [activator, single point] | – |
| CC(C)C(=O)Nc1ccc(-c2csc(-c3ccccc3)n2)cc1 | inactive | – |
| CCC1(C)C2(C#N)C(N)=NC(OC)(OC)C12C#N (stereo unspecified) | inconclusive: 11.2 µM [activator, partial curve, poor fit] | – |
